Each structure is given as a SMILES string. Structures can show the parent of a compound that is named as a salt. The list shows a part of the results. Most entries show no effect beyond the scatter of the controls. *1 amine or outer side, *2 acyl side, *3 side chain or, on linkers, in order; H or OH if unused. Where a SMILES comes first, the peptide text is derived from it. Bridges are numbered along the chain shown (N, C = ends). [ ]: non-standard residue; d: D form. The star is where a group is joined. hTyr(3S-OH,4S-OH,3'-OSO3H) = N[C@H](C(=O)O)[C@H](O)[C@@H](O)c1ccc(O)c(OS(=O)(=O)O)c1; Orn(4R-OH,5R-OH) = O=C([C@H](C[C@@H](O)[C@@H](O)N[*:3])N[*:1])[*:2]; Pro(3S-OH,4S-Me) = C[C@H]1CN[C@H](C(=O)O)[C@H]1O; X3 = CCCCCOc1ccc(-c2cc(-c3ccc(C(=O)*)cc3)no2)cc1; Gln(3R-OH) = NC(=O)C[C@@H](O)[C@H](N)C(=O)O; Hyp = O=C(O)[C@@H]1C[C@@H](O)CN1

Drawing on the supplement of paper PMC11348887, this text covers nucleus roundness z-score for 39 molecules.

The subject of the test is hPSC-derived cortical neurons (WA09). The experiment in a line: nucleus roundness z-score vs screen plate; higher = rounder nuclei (more mature). To be noted: 5 µM; treatment: days 7-14 after plating, readout day 21.
As for `O=C(O)c1cccnc1Nc1cccc(C(F)(F)F)c1` [Niflumic acid], the nucleus roundness z-score worked out at 0.34. Next, `CC(=O)Oc1ccc(C(c2ccc(OC(C)=O)cc2)c2ccccn2)cc1` [Bisacodyl]: -0.265. The same measure for `C[C@H]1Oc2cc(cnc2N)-c2c(nn(C)c2C#N)CN(C)C(=O)c2ccc(F)cc21`: 0.202; for `O=C(Nc1cccc(Nc2ncc(Br)c(NCCc3cnc[nH]3)n2)c1)N1CCCC1`: -0.286; for `Cc1c(-c2ccc(O)cc2)n(Cc2ccc(OCCN3CCCCCC3)cc2)c2ccc(O)cc12` [Bazedoxifene Acetate]: -6.44. The same measure for `CN1CCC(CNc2ccc3ncc(-c4cccc(OC(F)(F)F)c4)n3n2)CC1` [SGI-1776 free base]: -3.31; for `Nc1ccn([C@@H]2O[C@H](CO)[C@@H](O)C2(F)F)c(=O)n1` [Gemcitabine HCl]: -1.19.

In the case of `Nc1ccc(S(=O)(=O)c2ccc(N)cc2)cc1` [Dapson], the nucleus roundness z-score was 0.0934.

With `CCOC(=O)[C@H](CCc1ccccc1)N[C@@H](C)C(=O)N1C(=O)N(C)C[C@H]1C(=O)O` [Imidapril HCl], the nucleus roundness z-score amounted to 0.646. `COc1ccc(N2C(=O)/C(=C\c3ccc([N+](=O)[O-])s3)SC2=S)cc1` registered a nucleus roundness z-score of 0.309. The same measure for `COc1cc(C(C)=O)ccc1O` [Apocynin]: 0.157; for `O=C(O)c1cc(=O)[nH]c(=O)[nH]1` [Orotic acid (6-Carboxyuracil)]: 0.309; for `C[C@@H](NC(=O)c1ncnc(N)c1Cl)c1ncc(C(=O)Nc2cc(C(F)(F)F)c(Cl)cn2)s1`: 0.299. The same measure for `O=C(Nc1ccc(S(=O)(=O)Nc2ccccc2Cl)c(Cl)c1)c1ccccn1`: -1.11.

In the case of `CN(C)CCC[C@@]1(c2ccc(F)cc2)OCc2cc(C#N)ccc21` [Escitalopram Oxalate], the nucleus roundness z-score is -0.0333. As for `C[C@H](CCC(=O)NCCS(=O)(=O)O)[C@H]1CC[C@H]2[C@@H]3[C@@H](O)C[C@@H]4C[C@H](O)CC[C@]4(C)[C@H]3CC[C@]12C` [Sodium Tauroursodeoxycholate (TUDC)], the nucleus roundness z-score came out at 0.632.

As to `Nc1cccc2c1CN(C1CCC(=O)NC1=O)C2=O` (centres undefined) [Lenalidomide (CC-5013)], the nucleus roundness z-score turned out to be 0.907.

In the case of `C[C@H]1[C@H](OC(=O)CCC(=O)O)O[C@@H]2O[C@@]3(C)CC[C@H]4[C@H](C)CC[C@@H]1[C@@]24OO3` [Artesunate], the nucleus roundness z-score is -1.74.

`NC(=O)N1c2ccccc2C=Cc2ccccc21` [Carbamazepine] gave a nucleus roundness z-score of 0.275. On to `COc1ccc(CCc2nc3cc(-c4c(C)noc4C)ccc3n2C[C@H](C)N2CCOCC2)cc1Cl`, for which the nucleus roundness z-score is 0.559. `CCS(=O)(=O)c1cccc(-c2cc(C(=O)NC3CCN(C)CC3)c(C)c3[nH]c4ncc(C)cc4c23)c1`: the nucleus roundness z-score is -14.8.

In turn, `CC(C)(C)c1ccc(S(=O)(=O)NCc2ccc(C(=O)Nc3cccnc3)cc2)cc1` showed a nucleus roundness z-score of -0.525. Molecule `C=CC(=O)Nc1ccc2ncnc(Nc3cccc(Br)c3)c2c1` returned a nucleus roundness z-score of -0.741.

As to `CC(=O)O[C@H]1Cc2ccccc2N(C(N)=O)c2ccccc21` [Eslicarbazepine Acetate], the nucleus roundness z-score turned out to be 0.438. The same measure for `O=C(O)CCc1nc2ccccc2[nH]1` [Procodazole]: 0.501; for `O=C(O)c1ccccc1Nc1cccc(C(F)(F)F)c1` [Flufenamic acid]: 0.156; for `O=C(Nc1ccccc1)Nc1ccc(-c2ccc(C(=O)[C@@H]3CCC[C@H]3C(=O)O)cc2)cc1`: -0.189. Molecule `CCCCCOc1ccc(-c2cc(-c3ccc(C(=O)N[C@H]4C[C@@H](O)[C@@H](O)NC(=O)[C@@H]5[C@@H](O)[C@@H](C)CN5C(=O)[C@H]([C@H](O)CC(N)=O)NC(=O)[C@H]([C@H](O)[C@@H](O)c5ccc(O)c(OS(=O)(=O)O)c5)NC(=O)[C@@H]5C[C@@H](O)CN5C(=O)[C@H]([C@@H](C)O)NC4=O)cc3)no2)cc1` [Micafungin Sodium] (X3-[Orn(4R-OH,5R-OH)]T[Hyp][hTyr(3S-OH,4S-OH,3'-OSO3H)][Gln(3R-OH)][Pro(3S-OH,4S-Me)]; lactam 1-C) yielded a nucleus roundness z-score of -0.482.

`CC(C)(C)c1cc(C(C)(C)C)c(NC(=O)c2c[nH]c3ccccc3c2=O)cc1O` [Ivacaftor (VX-770)] showed a nucleus roundness z-score of 0.529. Next, `O=C(COc1cccc2c(=O)[nH]ccc12)c1ccccc1`: -1.92; `O=C(O)CC[C@H]1CC[C@@](c2cc(F)ccc2F)(S(=O)(=O)c2ccc(Cl)cc2)CC1`: -1.97.

For the molecule `CCNC(=O)[C@H]1O[C@@H](n2cnc3c(N)nc(NCCc4ccc(CCC(=O)O)cc4)nc32)[C@H](O)[C@@H]1O`, the nucleus roundness z-score is 0.116. The same measure for `S=c1[nH]cnc2nc[nH]c12` [Mercaptopurine (6-MP)]: -1.95. Next, `COc1ccc(C2CNC(=O)C2)cc1OC1CCCC1` (centres undefined) [Rolipram]: 0.308. Next, `Cc1ccc(S(=O)(=O)Cc2nc(-c3ccc(C(=O)NCc4cccnc4)cc3)oc2C)cc1`: -1.42. The molecule `C=C1CC[C@H](O)C/C1=C/C=C1\CCC[C@]2(C)[C@@H]([C@H](C)/C=C/[C@H](C)C(C)C)CC[C@@H]12` [Vitamin D2] displayed a nucleus roundness z-score of -0.0765. `NC[C@H]1O[C@H](O[C@H]2[C@H](O)[C@@H](O[C@H]3O[C@H](CO)[C@@H](O)[C@H](N)[C@H]3O)[C@H](N)C[C@@H]2N)[C@H](N)C[C@@H]1O` [Tobramycin] yielded a nucleus roundness z-score of -0.754. Molecule `CN(C(=O)c1ccc(F)cc1C(F)(F)F)C1CCN(c2nnc(-c3ccnn3C)c3ccccc23)CC1` returned a nucleus roundness z-score of 0.28. The molecule `CC1(C)S[C@@H]2[C@H](NC(=O)[C@H](N)c3ccc(O)cc3)C(=O)N2[C@H]1C(=O)O` [Amoxicillin Sodium] came in with a nucleus roundness z-score of 0.191.
